From patent US20060029546A1, “Materials and methods for identifying anti-schizophrenic agents” (deCODE Genetics, Inc., priority 2004, published 2006)
At least one structure is not confirmed: it was looked up by name or label, or the drawing left a doubt.

Tested on: NMDA receptor subunit NR2B
Experiment: NR2B Tyr1472 phosphorylation in mouse hippocampal lysates (Western blot)
Format: in vivo
Details: NRG1+/− mutant mice, 1 mg/kg i.p.
Procedure: To further characterize components of the NRG1/ErbB4 signaling pathway a-ErbB4 co-immunoprecipitates from mouse brain hippocampus were analyzed. […] Hippocampus tissue was isolated by manual dissection and homogenized in DOC buffer (20 μM ZnCl2, 50 mM Tris pH 9.0, 1% DOC) (1 ml/50 mg of tissue) containing protease and phosphatase inhibitors as above. 25U Benzonase Nuclease per 1 ml of lysate were added to each sample during a 60 minute incubation at 4° C. For SDS-PAGE and Western blot, sample protein content was determined using a BCA Protein Assay Reagent Kit (Pierce, Rockford, Ill.), adjusted to a final concentration of 2 μg/μl total protein in 1×SDS-PAGE sample buffer, and then 20-25 μg of protein was loaded per gel lane. For immunoprecipitation, samples were adjusted to a final concentration of 2 μg/μl total protein in DOC buffer. […]
It was hypothesized that NRG1^+/− and ErbB4^+/− mutant mice might show altered regulation of NMDA receptor subunit NR2B Tyr1472 phosphorylation related to their abnormal behavioral phenotype. Hippocampal lysates were analyzed as described in Example 1. It was determined that Tyr1472 of NR2B was hypo-phosphorylated in hippocampal lysates from 9 month old NRG1^+/− or ErbB4^+/− mutant mice as compared to age and sex matched C57B1/6 control mice (FIG. 3). […]

## CN1CCN(C2=Nc3cc(Cl)ccc3Nc3ccccc32)CC1 [clozapine]
  NR2B Tyr1472 hypophosphorylation / phosphorylation level: indistinguishable from age and sex matched controls
Listed as Clozapine
  NR2B Tyr1472 hypophosphorylation / phosphorylation level: reversed
